The supplement of paper PMC10849652
The other results are listed elsewhere or left out.

By UniProt entry, the sequences of proteins in these tests, tags left out. Where a name states a change or a piece, a line headed by the entry shows the natural chain unless it says otherwise.
UniProt Q96AT1: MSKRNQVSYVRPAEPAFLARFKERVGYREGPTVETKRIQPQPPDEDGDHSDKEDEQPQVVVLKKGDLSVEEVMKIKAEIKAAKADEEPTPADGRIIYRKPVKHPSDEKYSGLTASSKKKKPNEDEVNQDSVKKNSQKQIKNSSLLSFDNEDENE
UniProt O00139: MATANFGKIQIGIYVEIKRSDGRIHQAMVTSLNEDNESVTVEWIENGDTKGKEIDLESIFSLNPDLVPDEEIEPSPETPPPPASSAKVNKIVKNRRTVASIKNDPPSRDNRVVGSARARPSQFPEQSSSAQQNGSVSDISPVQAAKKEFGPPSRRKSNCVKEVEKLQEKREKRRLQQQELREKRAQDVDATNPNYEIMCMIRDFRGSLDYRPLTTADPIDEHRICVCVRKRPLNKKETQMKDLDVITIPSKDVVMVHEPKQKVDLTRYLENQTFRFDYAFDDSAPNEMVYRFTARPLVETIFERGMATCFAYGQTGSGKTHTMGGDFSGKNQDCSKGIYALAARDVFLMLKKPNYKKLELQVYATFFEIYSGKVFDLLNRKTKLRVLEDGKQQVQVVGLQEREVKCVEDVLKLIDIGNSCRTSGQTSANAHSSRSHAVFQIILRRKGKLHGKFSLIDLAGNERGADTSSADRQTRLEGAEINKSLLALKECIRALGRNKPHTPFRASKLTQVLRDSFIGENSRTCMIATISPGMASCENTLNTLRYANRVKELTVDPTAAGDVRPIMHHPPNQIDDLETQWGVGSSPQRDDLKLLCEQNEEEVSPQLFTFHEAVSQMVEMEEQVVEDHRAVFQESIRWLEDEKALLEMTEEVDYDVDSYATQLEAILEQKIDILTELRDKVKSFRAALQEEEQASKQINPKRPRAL
UniProt Q8NFY9: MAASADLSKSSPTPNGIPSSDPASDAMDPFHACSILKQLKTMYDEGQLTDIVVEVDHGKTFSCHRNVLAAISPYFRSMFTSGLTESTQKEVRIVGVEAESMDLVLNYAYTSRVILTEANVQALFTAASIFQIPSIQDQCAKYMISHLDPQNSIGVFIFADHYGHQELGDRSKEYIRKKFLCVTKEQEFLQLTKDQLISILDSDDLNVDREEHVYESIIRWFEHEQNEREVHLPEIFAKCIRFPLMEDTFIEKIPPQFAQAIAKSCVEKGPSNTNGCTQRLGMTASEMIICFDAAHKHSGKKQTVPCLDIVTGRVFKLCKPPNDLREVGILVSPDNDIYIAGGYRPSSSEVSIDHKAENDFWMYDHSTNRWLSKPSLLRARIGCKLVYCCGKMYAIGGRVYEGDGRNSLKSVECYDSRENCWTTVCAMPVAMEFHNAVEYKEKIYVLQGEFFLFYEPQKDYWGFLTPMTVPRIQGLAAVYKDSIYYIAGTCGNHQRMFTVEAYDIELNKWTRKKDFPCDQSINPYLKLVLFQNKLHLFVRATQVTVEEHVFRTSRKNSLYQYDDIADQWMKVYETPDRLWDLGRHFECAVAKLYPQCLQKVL
UniProt Q92945: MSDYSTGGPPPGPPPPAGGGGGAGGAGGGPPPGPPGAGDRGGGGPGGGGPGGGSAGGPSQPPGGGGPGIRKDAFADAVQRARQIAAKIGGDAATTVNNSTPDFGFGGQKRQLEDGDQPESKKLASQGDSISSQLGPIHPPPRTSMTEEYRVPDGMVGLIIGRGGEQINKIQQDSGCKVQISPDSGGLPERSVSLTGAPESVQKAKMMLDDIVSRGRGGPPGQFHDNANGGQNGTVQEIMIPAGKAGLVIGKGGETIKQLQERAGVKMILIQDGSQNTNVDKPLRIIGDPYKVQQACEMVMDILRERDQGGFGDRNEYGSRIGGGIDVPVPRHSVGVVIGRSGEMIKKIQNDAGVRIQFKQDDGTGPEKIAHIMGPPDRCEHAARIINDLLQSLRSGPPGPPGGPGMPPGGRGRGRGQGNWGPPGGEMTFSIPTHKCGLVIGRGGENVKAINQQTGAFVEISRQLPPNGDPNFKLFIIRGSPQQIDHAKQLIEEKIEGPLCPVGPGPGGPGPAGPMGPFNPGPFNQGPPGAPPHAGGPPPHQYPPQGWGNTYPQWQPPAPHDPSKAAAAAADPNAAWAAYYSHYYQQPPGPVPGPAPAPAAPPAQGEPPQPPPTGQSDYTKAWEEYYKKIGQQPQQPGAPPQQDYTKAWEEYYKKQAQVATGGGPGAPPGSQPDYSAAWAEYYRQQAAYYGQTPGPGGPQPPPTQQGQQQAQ
UniProt P41229: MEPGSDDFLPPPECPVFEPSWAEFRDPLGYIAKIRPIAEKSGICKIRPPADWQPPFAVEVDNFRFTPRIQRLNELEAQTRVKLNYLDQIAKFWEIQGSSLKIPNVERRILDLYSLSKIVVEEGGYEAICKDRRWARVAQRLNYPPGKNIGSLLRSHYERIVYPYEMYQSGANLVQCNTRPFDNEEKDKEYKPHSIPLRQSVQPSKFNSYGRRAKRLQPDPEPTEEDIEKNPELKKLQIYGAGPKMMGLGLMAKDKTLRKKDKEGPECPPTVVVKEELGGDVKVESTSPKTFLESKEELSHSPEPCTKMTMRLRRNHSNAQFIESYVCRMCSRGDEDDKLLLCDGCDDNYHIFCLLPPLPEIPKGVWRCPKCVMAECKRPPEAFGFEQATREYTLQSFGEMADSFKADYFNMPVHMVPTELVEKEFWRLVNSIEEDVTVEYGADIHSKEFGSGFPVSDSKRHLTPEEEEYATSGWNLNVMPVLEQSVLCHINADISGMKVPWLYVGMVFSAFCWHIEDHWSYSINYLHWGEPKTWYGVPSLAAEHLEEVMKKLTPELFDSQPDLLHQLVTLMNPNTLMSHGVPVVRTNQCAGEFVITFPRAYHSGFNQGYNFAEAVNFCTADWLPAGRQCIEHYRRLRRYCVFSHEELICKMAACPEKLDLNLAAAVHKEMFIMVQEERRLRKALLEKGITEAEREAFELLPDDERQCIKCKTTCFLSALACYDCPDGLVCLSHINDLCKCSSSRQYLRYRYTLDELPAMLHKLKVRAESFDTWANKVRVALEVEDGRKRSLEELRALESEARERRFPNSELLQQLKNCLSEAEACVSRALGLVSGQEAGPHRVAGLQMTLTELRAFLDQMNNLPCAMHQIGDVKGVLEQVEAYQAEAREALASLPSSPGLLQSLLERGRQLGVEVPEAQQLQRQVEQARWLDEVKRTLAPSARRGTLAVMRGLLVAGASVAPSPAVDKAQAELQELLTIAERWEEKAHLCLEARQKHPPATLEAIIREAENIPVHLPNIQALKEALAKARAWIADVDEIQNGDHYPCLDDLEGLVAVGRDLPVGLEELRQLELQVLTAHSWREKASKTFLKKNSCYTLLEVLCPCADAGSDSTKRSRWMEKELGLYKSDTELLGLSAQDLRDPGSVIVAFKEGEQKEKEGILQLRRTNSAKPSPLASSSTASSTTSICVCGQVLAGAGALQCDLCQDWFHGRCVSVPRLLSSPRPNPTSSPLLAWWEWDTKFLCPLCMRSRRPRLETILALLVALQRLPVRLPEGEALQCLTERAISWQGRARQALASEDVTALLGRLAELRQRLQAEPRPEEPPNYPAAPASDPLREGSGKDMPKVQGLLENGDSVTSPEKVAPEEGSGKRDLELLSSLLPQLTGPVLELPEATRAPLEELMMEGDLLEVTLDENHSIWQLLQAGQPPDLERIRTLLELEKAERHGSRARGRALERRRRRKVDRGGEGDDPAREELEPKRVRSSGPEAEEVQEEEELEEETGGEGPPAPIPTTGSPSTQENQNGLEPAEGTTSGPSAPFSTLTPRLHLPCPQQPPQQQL
UniProt Q9Y2K7: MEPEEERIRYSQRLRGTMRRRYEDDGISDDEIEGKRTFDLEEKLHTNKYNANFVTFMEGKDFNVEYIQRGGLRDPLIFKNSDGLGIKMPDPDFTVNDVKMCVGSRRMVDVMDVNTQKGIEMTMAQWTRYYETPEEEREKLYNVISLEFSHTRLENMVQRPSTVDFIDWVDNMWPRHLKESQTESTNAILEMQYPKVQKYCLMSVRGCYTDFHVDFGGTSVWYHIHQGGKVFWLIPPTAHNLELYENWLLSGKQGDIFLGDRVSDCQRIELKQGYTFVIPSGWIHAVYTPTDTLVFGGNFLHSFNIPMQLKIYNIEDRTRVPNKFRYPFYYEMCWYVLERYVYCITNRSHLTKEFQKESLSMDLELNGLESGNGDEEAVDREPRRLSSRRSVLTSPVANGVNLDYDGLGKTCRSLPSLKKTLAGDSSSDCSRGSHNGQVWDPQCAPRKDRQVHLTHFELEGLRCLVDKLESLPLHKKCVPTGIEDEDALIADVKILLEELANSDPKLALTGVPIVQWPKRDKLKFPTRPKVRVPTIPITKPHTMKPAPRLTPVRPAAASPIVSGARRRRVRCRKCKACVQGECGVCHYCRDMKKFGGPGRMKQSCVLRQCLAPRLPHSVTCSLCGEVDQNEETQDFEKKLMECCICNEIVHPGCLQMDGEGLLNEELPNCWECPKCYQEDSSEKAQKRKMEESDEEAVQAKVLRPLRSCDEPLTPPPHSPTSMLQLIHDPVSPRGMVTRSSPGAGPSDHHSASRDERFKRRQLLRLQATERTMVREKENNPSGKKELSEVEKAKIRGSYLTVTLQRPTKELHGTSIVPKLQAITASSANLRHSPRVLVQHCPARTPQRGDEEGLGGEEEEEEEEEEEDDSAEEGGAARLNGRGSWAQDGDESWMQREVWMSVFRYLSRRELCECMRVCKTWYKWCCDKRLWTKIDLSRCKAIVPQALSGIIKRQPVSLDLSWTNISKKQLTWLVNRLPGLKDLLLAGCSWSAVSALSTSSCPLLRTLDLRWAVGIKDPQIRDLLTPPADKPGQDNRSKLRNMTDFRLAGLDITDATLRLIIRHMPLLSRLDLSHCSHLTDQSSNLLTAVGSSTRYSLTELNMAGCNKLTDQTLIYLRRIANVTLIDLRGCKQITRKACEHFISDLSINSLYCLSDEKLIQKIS
UniProt Q96A73: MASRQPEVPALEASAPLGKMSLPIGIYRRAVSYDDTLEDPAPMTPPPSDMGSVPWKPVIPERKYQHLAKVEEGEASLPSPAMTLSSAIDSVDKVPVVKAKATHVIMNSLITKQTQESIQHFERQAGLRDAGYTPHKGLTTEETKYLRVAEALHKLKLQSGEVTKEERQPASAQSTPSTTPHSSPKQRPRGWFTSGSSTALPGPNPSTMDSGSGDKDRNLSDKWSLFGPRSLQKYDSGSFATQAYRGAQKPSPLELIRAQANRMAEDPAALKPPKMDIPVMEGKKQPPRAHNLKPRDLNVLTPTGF
UniProt Q06136: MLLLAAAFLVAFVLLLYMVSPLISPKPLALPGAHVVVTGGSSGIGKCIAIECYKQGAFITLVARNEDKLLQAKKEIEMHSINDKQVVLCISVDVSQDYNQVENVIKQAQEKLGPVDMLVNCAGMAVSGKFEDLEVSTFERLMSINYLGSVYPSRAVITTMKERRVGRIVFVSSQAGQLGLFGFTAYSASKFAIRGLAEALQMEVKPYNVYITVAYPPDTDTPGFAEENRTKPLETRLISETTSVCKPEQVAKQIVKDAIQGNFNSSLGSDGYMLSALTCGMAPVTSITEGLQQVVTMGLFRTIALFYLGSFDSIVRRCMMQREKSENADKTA
UniProt P17535: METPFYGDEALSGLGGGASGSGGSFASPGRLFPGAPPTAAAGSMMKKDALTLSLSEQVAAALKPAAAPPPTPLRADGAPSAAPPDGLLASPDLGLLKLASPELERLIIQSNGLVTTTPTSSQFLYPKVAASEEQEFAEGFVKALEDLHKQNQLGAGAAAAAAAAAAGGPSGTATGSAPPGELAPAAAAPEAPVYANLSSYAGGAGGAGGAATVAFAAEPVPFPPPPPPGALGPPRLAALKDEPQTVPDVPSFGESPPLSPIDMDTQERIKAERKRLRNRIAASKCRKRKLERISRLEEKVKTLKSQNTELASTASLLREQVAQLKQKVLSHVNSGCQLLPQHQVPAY
UniProt Q15046, whole entry, looked up: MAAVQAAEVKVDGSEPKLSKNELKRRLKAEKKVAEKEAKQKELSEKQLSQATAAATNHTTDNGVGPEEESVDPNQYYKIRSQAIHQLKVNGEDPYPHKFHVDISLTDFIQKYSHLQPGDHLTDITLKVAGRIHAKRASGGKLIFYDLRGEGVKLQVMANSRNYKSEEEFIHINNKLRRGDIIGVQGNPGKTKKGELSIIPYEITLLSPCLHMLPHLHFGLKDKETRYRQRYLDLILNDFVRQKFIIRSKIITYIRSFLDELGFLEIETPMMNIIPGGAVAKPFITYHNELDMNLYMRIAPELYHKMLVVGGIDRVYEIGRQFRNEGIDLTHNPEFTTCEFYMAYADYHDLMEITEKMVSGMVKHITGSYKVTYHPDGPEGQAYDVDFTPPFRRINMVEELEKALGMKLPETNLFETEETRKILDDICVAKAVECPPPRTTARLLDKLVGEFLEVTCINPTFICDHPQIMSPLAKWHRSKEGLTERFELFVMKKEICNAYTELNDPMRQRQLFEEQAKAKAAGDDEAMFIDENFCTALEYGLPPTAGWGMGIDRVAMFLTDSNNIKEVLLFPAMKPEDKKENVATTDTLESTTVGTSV

Assays:
Experiment in all cases: log2 fold change, soluble protein after heating vs DMSO (PISA); higher = thermal stabilisation; K562 cells, 10 uM, 30 min; active = over 0.2 and 3.5 SD of the protein, either way, in both replicates (recomputed)
[1] = compound: CS(=O)(=O)c1ccc(-c2cnc(N)c(C(=O)Nc3ccccc3)n2)cc1
How it was run: (§1)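 Soluble protein was defined as the supernatant after 21,000xg for 90 min. It came from K562 cells at 2×10^6 cells/mL given 10 μM compound for 30 min, heated in aliquots for 3 min across 48°C-58°C, pooled, and extracted in PBS with 0.5% NP-40 at 4°C, and was quantified by TMTpro 16plex LC-MS/MS with equalised channel sums. Thermal stability against control samples, from duplicates, is reported as log2 fold change.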

[2] = compound: C[C@@H](Oc1cc(-c2cnn(C3CCNCC3)c2)cnc1N)c1c(Cl)ccc(F)c1Cl [crizotinib]
How it was run: as §1

[3] = compound: C[C@@H]1COCCN1C2=NC(=NC(=C2)C3(CC3)S(=O)(=O)C)C4=C5C=CNC5=CC=C4
How it was run: as §1

[4] = compound: C[C@H](C1=CC=C(C=C1)C(=O)NC2=C3C=CNC3=NC=C2)N
How it was run: as §1

[5] = compound: C[C@H](Nc1ncnc2nc[nH]c12)c1cc2cccc(Cl)c2c(=O)n1-c1ccccc1 [duvelisib]
How it was run: as §1

[6] = compound: Cc1cc(Nc2cc(CN3CCOCC3)c3nc(C)c(Cc4ccc(Cl)cc4F)n3n2)n[nH]1 [gandotinib]
How it was run: as §1

[7] = compound: Cc1cc(Nc2cc(N3CCN(C)CC3)nc(Sc3ccc(NC(=O)C4CC4)cc3)n2)n[nH]1 [tozasertib]
How it was run: as §1

[8] = compound: Cc1cc(SCc2sc(-c3ccc(C(F)(F)F)cc3)nc2C)ccc1OCC(=O)O
How it was run: as §1

[9] = compound: Cc1ccc(-n2nc(C(C)(C)C)cc2NC(=O)Nc2ccc(OCCN3CCOCC3)c3ccccc23)cc1 [doramapimod]
How it was run: as §1

[10] = compound: Cc1ccc(C(=O)N(CCCN)[C@@H](c2nc3cc(Cl)ccc3c(=O)n2Cc2ccccc2)C(C)C)cc1 [ispinesib]
How it was run: as §1

[11] = compound: Cc1ccc(NC(=O)c2ccc(CN3CC[C@H](N(C)C)C3)c(C(F)(F)F)c2)cc1Nc1nccc(-c2cncnc2)n1 [bafetinib]
How it was run: as §1

[12] = compound: Cc1cccc(CC(=O)N2CCc3c2ccc(-c2cn(C)c4ncnc(N)c24)c3F)n1
How it was run: as §1

[13] = compound: Cc1cn(-c2cc(NC(=O)c3ccc(C)c(Nc4nccc(-c5cccnc5)n4)c3)cc(C(F)(F)F)c2)cn1 [nilotinib]
How it was run: as §1

[14] = compound: Cc1nc(Nc2n[nH]c3c2CN(C(=O)N[C@H](CN(C)C)c2ccccc2)C3(C)C)c2sccc2n1
How it was run: as §1

[15] = compound: Cc1nc(Nc2ncc(C(=O)Nc3c(C)cccc3Cl)s2)cc(N2CCN(CCO)CC2)n1 [dasatinib]
How it was run: as §1

[16] = compound: Cc1ncc(-c2ccnc(Nc3ccc(S(C)(=O)=O)cc3)n2)n1C(C)C
How it was run: as §1

[17] = compound: Cn1cc(-c2ccc3c(c2)CCN3C(=O)Cc2cccc(C(F)(F)F)c2)c2c(N)ncnc21
How it was run: as §1

[18] = compound: Cn1cc(-c2ccc3nnc(C(F)(F)c4ccc5ncccc5c4)n3n2)cn1
How it was run: as §1

[19] = compound: Cn1cncc1[C@@](N)(c1ccc(Cl)cc1)c1ccc2c(c1)c(-c1cccc(Cl)c1)cc(=O)n2C [tipifarnib]
How it was run: as §1

[20] = compound: FC(F)(F)c1ccc(/C=C/c2nc(COc3ccc(CCCCn4ccnn4)cc3)co2)cc1 [mubritinib]
How it was run: as §1

Measured: log2 fold change

KIF5B (UniProt P33176)
inactive: [1] 0.029 | [2] -0.007 | [3] 0.055 | [4] -0.046 | [5] 0.019 | [6] -0.068 | [7] -0.009 | [8] 0.024 | [9] 0.001 | [10] 0.083 | [11] 0.01 | [12] 0.005 | [13] 0.007 | [14] -0.026 | [15] -0.054 | [16] -0.002 | [17] 0.033 | [18] -0.025 | [19] -0.034 | [20] 0.041

KIAA1143 (UniProt Q96AT1)
inactive: [1] 0.079 | [2] 0.082 | [3] -0.105 | [4] 0.075 | [5] 0.04 | [6] 0.118 | [7] -0.05 | [8] -0.081 | [9] -0.034 | [10] 0.008 | [11] -0.204 | [12] -0.004 | [13] 0.034 | [14] -0.021 | [15] 0.048 | [16] -0.007 | [17] -0.008 | [18] -0.042 | [19] 0.098 | [20] 0.065

KIF2A isoform 4 (UniProt O00139)
inactive: [1] -0.057 | [2] -0.066 | [3] -0.138 | [4] 0.105 | [5] -0.04 | [6] 0.006 | [7] -0.046 | [8] 0.068 | [9] 0.139 | [10] -0.177 | [11] 0.049 | [12] 0.017 | [13] -0.08 | [14] 0.016 | [15] -0.034 | [16] -0.008 | [17] -0.059 | [18] -0.085 | [19] 0.013 | [20] -0.133

KCTD5 (UniProt Q9NXV2)
inactive: [1] 0.028 | [2] 0.056 | [3] -0.031 | [4] 0.042 | [5] 0.071 | [6] 0.11 | [7] -0.023 | [8] -0.014 | [9] -0.019 | [10] 0.149 | [11] -0.118 | [12] -0.122 | [13] 0.038 | [14] 0.03 | [15] -0.042 | [16] 0.002 | [17] 0.076 | [18] 0.018 | [19] 0.04 | [20] 0.078

KPNA3 (UniProt O00505)
inactive: [1] 0.003 | [2] -0.068 | [3] -0.005 | [4] -0.025 | [5] 0.048 | [6] -0.033 | [7] -0.023 | [8] 0.136 | [9] -0.048 | [10] -0.036 | [11] -0.094 | [12] 0.093 | [13] -0.044 | [14] -0.097 | [15] -0.189 | [16] -0.113 | [17] 0.038 | [18] -0.016 | [19] -0.011 | [20] 0.109

KBTBD8 (UniProt Q8NFY9)
inactive: [1] 0.018 | [2] -0.15 | [3] 0.039 | [4] 0.001 | [5] -0.009 | [6] -0.088 | [7] 0.018 | [8] 0 | [9] 0.132 | [10] -0.066 | [11] -0.143 | [12] 0.037 | [13] -0.048 | [14] 0.011 | [15] -0.026 | [16] -0.048 | [17] 0.068 | [18] -0.038 | [19] -0.04 | [20] 0.027

KLHL11 (UniProt Q9NVR0)
inactive: [1] 0.071 | [2] -0.079 | [3] 0.045 | [4] 0.008 | [5] 0.38 | [6] -0.017 | [7] -0.188 | [8] 0.092 | [9] -0.014 | [10] 0.073 | [11] -0.062 | [12] -0.003 | [13] 0.097 | [14] -0.127 | [15] -0.193 | [16] -0.077 | [17] 0.029 | [18] -0.143 | [19] -0.019 | [20] 0.108

KIAA0100 (UniProt Q14667)
inactive: [1] 0.062 | [2] 0.016 | [3] 0.033 | [4] -0.026 | [5] 0.068 | [6] -0.002 | [7] -0.132 | [8] -0.083 | [9] -0.027 | [10] -0.064 | [11] -0.051 | [12] 0.059 | [13] 0.025 | [14] 0.063 | [15] 0.039 | [16] -0.066 | [17] 0.043 | [18] 0.114 | [19] -0.066 | [20] 0.094

KHSRP (UniProt Q92945)
inactive: [1] -0.015 | [2] 0.011 | [3] 0.016 | [4] -0.018 | [5] 0.009 | [6] -0.021 | [7] -0.029 | [8] -0.028 | [9] -0.006 | [10] -0.016 | [11] -0.052 | [12] -0.033 | [13] 0.02 | [14] 0.015 | [15] 0.031 | [16] -0.017 | [17] 0.019 | [18] 0.005 | [19] 0.012 | [20] 0.026

KDM5C (UniProt P41229)
inactive: [1] 0.043 | [2] 0.009 | [3] 0.068 | [4] 0.03 | [5] 0.03 | [6] 0.109 | [7] 0.146 | [8] 0.03 | [9] 0.067 | [10] 0.022 | [11] -0.027 | [12] 0.058 | [13] -0.118 | [14] 0.038 | [15] -0.119 | [16] -0.008 | [17] -0.079 | [18] 0.051 | [19] -0.044 | [20] 0.134

KDM2A (UniProt Q9Y2K7)
inactive: [1] 0.102 | [2] -0.103 | [3] 0.171 | [4] -0.068 | [5] -0.032 | [6] -0.149 | [7] -0.012 | [8] 0.025 | [9] 0.003 | [10] 0.012 | [11] -0.044 | [12] 0.056 | [13] -0.162 | [14] 0.059 | [15] -0.05 | [16] -0.075 | [17] -0.052 | [18] -0.084 | [19] 0.101 | [20] 0.045

KIAA1191 (UniProt Q96A73)
inactive: [1] 0.113 | [2] -0.058 | [3] 0.081 | [4] -0.02 | [5] 0.14 | [6] -0.142 | [7] -0.002 | [8] -0.034 | [9] -0.008 | [10] 0.04 | [11] -0.07 | [12] 0.042 | [13] -0.071 | [14] -0.035 | [15] -0.048 | [16] 0.006 | [17] 0.008 | [18] -0.033 | [19] 0.014 | [20] -0.071

KDSR (UniProt Q06136)
inactive: [1] -0.051 | [2] 0.008 | [3] 0.015 | [4] -0.118 | [5] 0.021 | [6] -0.073 | [7] 0.003 | [8] -0.006 | [9] -0.052 | [10] 0.016 | [11] -0.008 | [12] 0 | [13] 0.019 | [14] 0.02 | [15] 0.101 | [16] 0.012 | [17] 0.016 | [18] 0.03 | [19] 0.009 | [20] 0.019

JUND (UniProt P17535)
inactive: [1] 0.019 | [2] 0.044 | [3] -0.049 | [4] 0.111 | [5] 0.122 | [6] 0.008 | [7] -0.087 | [8] -0.028 | [9] 0.05 | [10] -0.017 | [11] -0.001 | [12] -0.025 | [13] -0.043 | [14] 0.04 | [15] 0.027 | [16] 0.052 | [17] -0.039 | [18] 0.078 | [19] 0.06 | [20] 0.005

KMT2D isoform 3 (UniProt O14686)
inactive: [1] 0.093 | [2] 0 | [3] 0.06 | [4] 0.064 | [5] -0.025 | [6] 0.095 | [7] 0.099 | [8] 0.063 | [9] 0.048 | [10] 0.06 | [11] 0.03 | [12] 0.046 | [13] 0.057 | [14] -0.07 | [15] -0.101 | [16] 0 | [17] -0.062 | [18] -0.04 | [19] -0.015 | [20] -0.007

KARS1 (UniProt Q15046)
inactive: [1] -0.029 | [2] 0.016 | [3] -0.151 | [4] 0.164 | [5] -0.096 | [6] -0.027 | [7] -0.006 | [8] -0.015 | [9] 0.131 | [10] -0.156 | [11] 0.004 | [12] 0.141 | [13] 0.034 | [14] 0.032 | [15] 0.072 | [16] -0.004 | [17] -0.135 | [18] -0.116 | [19] 0.033 | [20] -0.057

Two entries picked at random from the list so far:
JUND (UniProt P17535)
inactive: [1] 0.019 | [2] 0.044 | [3] -0.049 | [4] 0.111 | [5] 0.122 | [6] 0.008 | [7] -0.087 | [8] -0.028 | [9] 0.05 | [10] -0.017 | [11] -0.001 | [12] -0.025 | [13] -0.043 | [14] 0.04 | [15] 0.027 | [16] 0.052 | [17] -0.039 | [18] 0.078 | [19] 0.06 | [20] 0.005

KDSR (UniProt Q06136)
inactive: [1] -0.051 | [2] 0.008 | [3] 0.015 | [4] -0.118 | [5] 0.021 | [6] -0.073 | [7] 0.003 | [8] -0.006 | [9] -0.052 | [10] 0.016 | [11] -0.008 | [12] 0 | [13] 0.019 | [14] 0.02 | [15] 0.101 | [16] 0.012 | [17] 0.016 | [18] 0.03 | [19] 0.009 | [20] 0.019
